This passage reports binding results from US20150165065A1 (AVIDBIOTICS, published 2015).

The chains behind the UniProt entries cited, without tags or fusion partners. Where a name states a change or a piece, a line headed by the entry shows the natural chain unless it says otherwise.
UniProt P06756: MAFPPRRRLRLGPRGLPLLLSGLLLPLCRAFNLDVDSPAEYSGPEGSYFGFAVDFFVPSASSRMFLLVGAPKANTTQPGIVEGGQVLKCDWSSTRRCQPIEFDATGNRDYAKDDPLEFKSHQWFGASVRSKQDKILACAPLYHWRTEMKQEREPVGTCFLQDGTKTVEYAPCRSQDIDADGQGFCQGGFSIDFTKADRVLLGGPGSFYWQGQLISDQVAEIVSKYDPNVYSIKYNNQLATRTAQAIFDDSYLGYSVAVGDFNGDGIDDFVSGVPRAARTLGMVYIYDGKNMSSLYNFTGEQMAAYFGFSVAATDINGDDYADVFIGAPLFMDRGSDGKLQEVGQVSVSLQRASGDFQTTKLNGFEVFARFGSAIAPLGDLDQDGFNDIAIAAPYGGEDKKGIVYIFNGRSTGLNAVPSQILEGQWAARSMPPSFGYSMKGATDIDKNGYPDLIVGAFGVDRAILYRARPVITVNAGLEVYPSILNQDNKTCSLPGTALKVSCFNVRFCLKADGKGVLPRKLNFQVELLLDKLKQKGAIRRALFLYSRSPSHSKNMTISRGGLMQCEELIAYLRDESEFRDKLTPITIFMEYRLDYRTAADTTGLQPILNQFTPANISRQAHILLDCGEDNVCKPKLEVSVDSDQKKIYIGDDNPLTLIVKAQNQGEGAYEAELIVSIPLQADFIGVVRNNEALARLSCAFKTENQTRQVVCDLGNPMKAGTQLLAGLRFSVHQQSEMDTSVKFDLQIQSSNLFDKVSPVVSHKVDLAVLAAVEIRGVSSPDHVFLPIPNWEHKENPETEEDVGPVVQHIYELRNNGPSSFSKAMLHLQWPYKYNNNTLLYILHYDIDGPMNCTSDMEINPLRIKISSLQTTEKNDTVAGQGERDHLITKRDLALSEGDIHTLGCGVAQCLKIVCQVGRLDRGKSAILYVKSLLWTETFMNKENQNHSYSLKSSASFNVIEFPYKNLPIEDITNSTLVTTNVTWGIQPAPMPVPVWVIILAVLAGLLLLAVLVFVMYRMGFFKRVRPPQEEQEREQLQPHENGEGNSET

The target in one test is T1, integrin αVβ3 (UniProt P06756 31-992; P05106 27-718).
T1 construct: Coated on the ELISA plate
Description: ELISA, coated integrin, anti-MICA-HRP.

Another test addresses T2, integrin αVβ5 (UniProt P06756 31-992; P18084 24-719).
T2 construct: Coated on the ELISA plate
Description: ELISA, coated integrin, anti-MICA-HRP.

Results are given in words; binding and its absence hold for the method and conditions named. Some binding calls cover weakened binding; strength is not graded here.

B1: soluble MICA generated from pKK41 (loop 1 insert 5.2) (designed binder)
chain: HHHHHHEPHSLRYNLTVLSWDGSVQSGFLTEVHLDGQPFLRCDRQKCRAKPQGQWAEDVLGNKTWDRETRDLTGNGKDLRMTLAHIKDQKEGLHSLQEIRVCEIHEDNSTRSSQHFYYDGELFLSQNLETEEWTMPQSSRAQTLAMNVRNFLKEDAMKTKTHYHAMHADCLQELRRYLKSGVVLRRTVPPMVNVTRGDTFTQSVTCRASGFYPWNITLSWRQDGVSLSHDTQQWGDVLPDGNGTYQTWVATRICQGEEQRFTCYMEHSGNHSTHPVPSGK
notes: From pKK34 (His6, Glu125); secreted by 293T cells; also called 1-5.2
In the case of B1, the binding entry with integrin αVβ3 and in the test with integrin αVβ5 was “binds” each time.

B2: soluble MICA generated from pKK36 (loop 1 insert 3.1) (designed binder)
chain: HHHHHHEPHSLRYNLTVLSWDGSVQSGFLTEVHLDGQPFLRCDRQKCRAKPQGQWAEDVLGNKTWDRETRDLTGNGKDLRMTLAHIKDQKEGLHSLQEIRVCEIHEDNSTRSSQHFYYDGELFLSQNLETEEWTMPQSSRAQTLAMNVRNFLKEDAMKTKTHYHAMHADCLQELRRYLKSGVVLRRTVPPMVNVTSRGDHPRTQVTCRASGFYPWNITLSWRQDGVSLSHDTQQWGDVLPDGNGTYQTWVATRICQGEEQRFTCYMEHSGNHSTHPVPSGK
notes: From pKK34 (His6, Glu125); secreted by 293T cells; also called 1-3.1
B2: the binding entry with integrin αVβ3 and in the test with integrin αVβ5 was “binds” throughout.

B3: soluble MICA generated from pKK48 (loop 3 insert extended 3.2sp) (designed binder)
chain: EPHSLRYNLTVLSWDGSVQSGFLTEVHLDGQPFLRCDRQKCRAKPQGQWAEDVLGNKTWDRETRDLTGNGKDLRMTLAHIKDQKEGLHSLQEIRVCEIHEDNSTRSSQHFYYDGELFLSQNLETKEWTMPQSSRAQTLAMNVRNFLKEDAMKTKTHYHAMHADCLQELRRYLKSGVVLRRTVPPMVNVTRSEASEGNITVTCRASGFYPWNITLSWRQDGVSLSHDTQQWGDVLPDGNGTYQTWVATRISGGSGGGSTSRGDHPRTQSGGSGGGCYMEHSGNHSTHPVPSGK
notes: From pSW276 (no N-terminal His tag, Lys125); secreted by 293T cells; also called 3-3.2sp
Consider B3, for which the binding result in the test with integrin αVβ3 and with integrin αVβ5 was “binds” throughout.

B4: soluble MICA generated from pKK38 (loop 1 insert 3.3) (designed binder)
chain: HHHHHHEPHSLRYNLTVLSWDGSVQSGFLTEVHLDGQPFLRCDRQKCRAKPQGQWAEDVLGNKTWDRETRDLTGNGKDLRMTLAHIKDQKEGLHSLQEIRVCEIHEDNSTRSSQHFYYDGELFLSQNLETEEWTMPQSSRAQTLAMNVRNFLKEDAMKTKTHYHAMHADCLQELRRYLKSGVVLRRTVPPMVNVTRVPRGDSDLTVTCRASGFYPWNITLSWRQDGVSLSHDTQQWGDVLPDGNGTYQTWVATRICQGEEQRFTCYMEHSGNHSTHPVPSGK
notes: From pKK34 (His6, Glu125); secreted by 293T cells; also called 1-3.3
With B4, the binding result with integrin αVβ3 and with integrin αVβ5 was “binds” each time.

B5: soluble MICA generated from pKK40 (loop 1 insert 5.1) (designed binder)
chain: HHHHHHEPHSLRYNLTVLSWDGSVQSGFLTEVHLDGQPFLRCDRQKCRAKPQGQWAEDVLGNKTWDRETRDLTGNGKDLRMTLAHIKDQKEGLHSLQEIRVCEIHEDNSTRSSQHFYYDGELFLSQNLETEEWTMPQSSRAQTLAMNVRNFLKEDAMKTKTHYHAMHADCLQELRRYLKSGVVLRRTVPPMVNVTVTRGDTFTQSVTCRASGFYPWNITLSWRQDGVSLSHDTQQWGDVLPDGNGTYQTWVATRICQGEEQRFTCYMEHSGNHSTHPVPSGK
notes: From pKK34 (His6, Glu125); secreted by 293T cells; also called 1-5.1
Take B5: the binding result with integrin αVβ3 and in the test with integrin αVβ5 was “binds” each time.

B6: soluble MICA generated from pKK42 (loop 1 insert 5.3) (designed binder)
chain: HHHHHHEPHSLRYNLTVLSWDGSVQSGFLTEVHLDGQPFLRCDRQKCRAKPQGQWAEDVLGNKTWDRETRDLTGNGKDLRMTLAHIKDQKEGLHSLQEIRVCEIHEDNSTRSSQHFYYDGELFLSQNLETEEWTMPQSSRAQTLAMNVRNFLKEDAMKTKTHYHAMHADCLQELRRYLKSGVVLRRTVPPMVNVTHLARGDDLTYVTCRASGFYPWNITLSWRQDGVSLSHDTQQWGDVLPDGNGTYQTWVATRICQGEEQRFTCYMEHSGNHSTHPVPSGK
notes: From pKK34 (His6, Glu125); secreted by 293T cells; also called 1-5.3
As for B6, the binding entry with integrin αVβ3 and with integrin αVβ5 was “binds” throughout.

B7: soluble MICA generated from pKK39 (loop 1 insert 3.4) (designed binder)
chain: HHHHHHEPHSLRYNLTVLSWDGSVQSGFLTEVHLDGQPFLRCDRQKCRAKPQGQWAEDVLGNKTWDRETRDLTGNGKDLRMTLAHIKDQKEGLHSLQEIRVCEIHEDNSTRSSQHFYYDGELFLSQNLETEEWTMPQSSRAQTLAMNVRNFLKEDAMKTKTHYHAMHADCLQELRRYLKSGVVLRRTVPPMVNVTRSARGDSDHRVTCRASGFYPWNITLSWRQDGVSLSHDTQQWGDVLPDGNGTYQTWVATRICQGEEQRFTCYMEHSGNHSTHPVPSGK
notes: From pKK34 (His6, Glu125); secreted by 293T cells; also called 1-3.4
For the molecule B7, the binding result with integrin αVβ3 and with integrin αVβ5 was “binds” throughout.

B8: soluble MICA generated from pKK44 (loop 1 insert extended 3.2sp) (designed binder)
chain: HHHHHHEPHSLRYNLTVLSWDGSVQSGFLTEVHLDGQPFLRCDRQKCRAKPQGQWAEDVLGNKTWDRETRDLTGNGKDLRMTLAHIKDQKEGLHSLQEIRVCEIHEDNSTRSSQHFYYDGELFLSQNLETEEWTMPQSSRAQTLAMNVRNFLKEDAMKTKTHYHAMHADCLQELRRYLKSGVVLRRTVPPMVNVTSGGSGGGSTSRGDHPRTQSGGSGGGVTCRASGFYPWNITLSWRQDGVSLSHDTQQWGDVLPDGNGTYQTWVATRICQGEEQRFTCYMEHSGNHSTHPVPSGK
notes: From pKK34 (His6, Glu125); secreted by 293T cells; also called 1-3.2sp
B8: the binding result in the test with integrin αVβ3 and with integrin αVβ5 was “binds” in each case.

B9: soluble MICA generated from pKK45 (loop 1 insert extended 3.3sp) (designed binder)
chain: HHHHHHEPHSLRYNLTVLSWDGSVQSGFLTEVHLDGQPFLRCDRQKCRAKPQGQWAEDVLGNKTWDRETRDLTGNGKDLRMTLAHIKDQKEGLHSLQEIRVCEIHEDNSTRSSQHFYYDGELFLSQNLETEEWTMPQSSRAQTLAMNVRNFLKEDAMKTKTHYHAMHADCLQELRRYLKSGVVLRRTVPPMVNVTSGGSGGGSRVPRGDSDLTSGGSGGGVTCRASGFYPWNITLSWRQDGVSLSHDTQQWGDVLPDGNGTYQTWVATRICQGEEQRFTCYMEHSGNHSTHPVPSGK
notes: From pKK34 (His6, Glu125); secreted by 293T cells; also called 1-3.3sp
In the case of B9, the binding result in the test with integrin αVβ3 and with integrin αVβ5 was “binds” in each case.

B10: soluble MICA generated from pKK46 (loop 1 insert extended 5.1sp) (designed binder)
chain: HHHHHHEPHSLRYNLTVLSWDGSVQSGFLTEVHLDGQPFLRCDRQKCRAKPQGQWAEDVLGNKTWDRETRDLTGNGKDLRMTLAHIKDQKEGLHSLQEIRVCEIHEDNSTRSSQHFYYDGELFLSQNLETEEWTMPQSSRAQTLAMNVRNFLKEDAMKTKTHYHAMHADCLQELRRYLKSGVVLRRTVPPMVNVTSGGSGGGSVTRGDTFTQSSGGSGGGVTCRASGFYPWNITLSWRQDGVSLSHDTQQWGDVLPDGNGTYQTWVATRICQGEEQRFTCYMEHSGNHSTHPVPSGK
notes: From pKK34 (His6, Glu125); secreted by 293T cells; also called 1-5.1sp
For the molecule B10, the binding result in the test with integrin αVβ3 and with integrin αVβ5 was “binds” in each case.

B11: soluble MICA generated from pKK47 (loop 1 insert extended 5.3sp) (designed binder)
chain: HHHHHHEPHSLRYNLTVLSWDGSVQSGFLTEVHLDGQPFLRCDRQKCRAKPQGQWAEDVLGNKTWDRETRDLTGNGKDLRMTLAHIKDQKEGLHSLQEIRVCEIHEDNSTRSSQHFYYDGELFLSQNLETEEWTMPQSSRAQTLAMNVRNFLKEDAMKTKTHYHAMHADCLQELRRYLKSGVVLRRTVPPMVNVTSGGSGGGSHLARGDDLTYSGGSGGGVTCRASGFYPWNITLSWRQDGVSLSHDTQQWGDVLPDGNGTYQTWVATRICQGEEQRFTCYMEHSGNHSTHPVPSGK
notes: From pKK34 (His6, Glu125); secreted by 293T cells; also called 1-5.3sp
With B11, the binding entry in the test with integrin αVβ3 and in the test with integrin αVβ5 was “binds” each time.

B12: soluble MICA generated from pKK128 (loop 1 extended 5.1sp, loop 3 extended 3.2sp) (designed binder)
chain: HHHHHHEPHSLRYNLTVLSWDGSVQSGFLTEVHLDGQPFLRCDRQKCRAKPQGQWAEDVLGNKTWDRETRDLTGNGKDLRMTLAHIKDQKEGLHSLQEIRVCEIHEDNSTRSSQHFYYDGELFLSQNLETEEWTMPQSSRAQTLAMNVRNFLKEDAMKTKTHYHAMHADCLQELRRYLKSGVVLRRTVPPMVNVTSGGSGGGSVTRGDTFTQSSGGSGGGVTCRASGFYPWNITLSWRQDGVSLSHDTQQWGDVLPDGNGTYQTWVATRISGGSGGGSTSRGDHPRTQSGGSGGGCYMEHSGNHSTHPVPSGK
notes: From pKK115 (from pKK46: His6, Glu125); secreted by 293T cells; also called 1-5.1sp/3-3.2sp
For B12, the binding entry in the test with integrin αVβ3 and with integrin αVβ5 was “binds” each time.

B13: soluble MICA generated from pKK129 (loop 1 extended 5.1sp, loop 3 extended 5.1sp) (designed binder)
chain: HHHHHHEPHSLRYNLTVLSWDGSVQSGFLTEVHLDGQPFLRCDRQKCRAKPQGQWAEDVLGNKTWDRETRDLTGNGKDLRMTLAHIKDQKEGLHSLQEIRVCEIHEDNSTRSSQHFYYDGELFLSQNLETEEWTMPQSSRAQTLAMNVRNFLKEDAMKTKTHYHAMHADCLQELRRYLKSGVVLRRTVPPMVNVTSGGSGGGSVTRGDTFTQSSGGSGGGVTCRASGFYPWNITLSWRQDGVSLSHDTQQWGDVLPDGNGTYQTWVATRISGGSGGGSVTRGDTFTQSSGGSGGGCYMEHSGNHSTHPVPSGK
Regarding B13, the binding result in the test with integrin αVβ3 and in the test with integrin αVβ5 was “binds” each time.

B14: soluble MICA generated from pKK131 (loop 1 extended 5.1sp, loop 3 extended 5.1spNH) (designed binder)
chain: HHHHHHEPHSLRYNLTVLSWDGSVQSGFLTEVHLDGQPFLRCDRQKCRAKPQGQWAEDVLGNKTWDRETRDLTGNGKDLRMTLAHIKDQKEGLHSLQEIRVCEIHEDNSTRSSQHFYYDGELFLSQNLETEEWTMPQSSRAQTLAMNVRNFLKEDAMKTKTHYHAMHADCLQELRRYLKSGVVLRRTVPPMVNVTSGGSGGGSVTRGDTFTQSSGGSGGGVTCRASGFYPWNITLSWRQDGVSLSHDTQQWGDVLPDGNGTYQTWVATRISGGSGGGSVTRGDTFTQSSGGSGGGCYMEHSGNHSTHPVPSGK
Turning to B14, the binding entry with integrin αVβ3 and in the test with integrin αVβ5 was “binds” each time.

B15: soluble MICA generated from pKK130 (loop 1 extended 5.1sp, loop 3 extended 5.3sp) (designed binder)
chain: HHHHHHEPHSLRYNLTVLSWDGSVQSGFLTEVHLDGQPFLRCDRQKCRAKPQGQWAEDVLGNKTWDRETRDLTGNGKDLRMTLAHIKDQKEGLHSLQEIRVCEIHEDNSTRSSQHFYYDGELFLSQNLETEEWTMPQSSRAQTLAMNVRNFLKEDAMKTKTHYHAMHADCLQELRRYLKSGVVLRRTVPPMVNVTSGGSGGGSVTRGDTFTQSSGGSGGGVTCRASGFYPWNITLSWRQDGVSLSHDTQQWGDVLPDGNGTYQTWVATRISGGSGGGSHLARGDDLTYSGGSGGGCYMEHSGNHSTHPVPSGK
notes: From pKK115 (from pKK46: His6, Glu125); secreted by 293T cells; also called 1-5.1sp/3-5.3sp
Consider B15, for which the binding result in the test with integrin αVβ3 and in the test with integrin αVβ5 was “binds” in each case.

B16: soluble MICA generated from pKK37 (loop 1 insert 3.2) (designed binder)
chain: HHHHHHEPHSLRYNLTVLSWDGSVQSGFLTEVHLDGQPFLRCDRQKCRAKPQGQWAEDVLGNKTWDRETRDLTGNGKDLRMTLAHIKDQKEGLHSLQEIRVCEIHEDNSTRSSQHFYYDGELFLSQNLETEEWTMPQSSRAQTLAMNVRNFLKEDAMKTKTHYHAMHADCLQELRRYLKSGVVLRRTVPPMVNVTRTSRGDHPRTQVTCRASGFYPWNITLSWRQDGVSLSHDTQQWGDVLPDGNGTYQTWVATRICQGEEQRFTCYMEHSGNHSTHPVPSGK
notes: From pKK34 (His6, Glu125); secreted by 293T cells; also called 1-3.2
For B16, the binding entry with integrin αVβ3 and with integrin αVβ5 was “binds” in each case.
